Experimental data as given in patent US20260083698A1, “Synergistic Stimulation of Mucociliary Clearance to Treat Mucus Obstruction in Cystic Fibrosis and Other Muco-Obstructive Disorders” (The Board of Trustees of the Leland Stanford Junior …, priority 2022, published 2026).

How the values were obtained:
piglet tracheal rings = experiment: Airway narrowing: lumen area of thin sliced tracheal rings, methacholine; design: species or system pig; details: methacholine preceded by 10 mM formoterol
ex vivo WT pig tracheas = experiment: ASL height by synchrotron-based phase contrast imaging
Experimental: ASL heights were determined in pig tracheal preparations using synchrotron-based phase contrast imaging (PCI). The synchrotron beamline produces enough parallel spatial coherence X-ray to increase the contrast between airway lumen and ASL layer by PCI. When X-rays pass through the intact tracheal preparation, the difference in refractive index between ASL and airway lumen results in a phase shift of X-rays that causes a distinctive interference pattern shown on the charge-coupled device (CCD) detector as variations in X-ray intensity.

COc1ccc(CC(C)NCC(O)c2ccc(O)c(NC=O)c2)cc1 (centres unmarked) [formoterol]
transient decrease of lumen area induced by methacholine when preceded by formoterol (piglet tracheal rings): 5-10% | effect on ASL height (ex vivo WT pig tracheas): increased ASL heights
